These are yes or no findings as the source states them, for the method shown. Binding seen in cells or lysates may run through a third protein. These calls come from enrichment with a bait or labelling near it, and not all partners need be listed. For some assays here: Sequences can lack the tags named with a protein.
Experiments:
[1] = biological target: E2FB-GFP (Arabidopsis thaliana) (UniProt Q9FV71); test: affinity purification with mass spectrometry; FP-IP: anti-GFP antibody on magnetic beads, total protein extracts (4 mg/IP) of Arabidopsis seedlings expressing the GFP- or CFP-tagged bait under its own promoter; GFP alone as control; standard conditions, various growth regimes (meta-analysis of 182 IPs), with or without 50 uM cisplatin for 24 h; label-free LC-MS/MS
[2] = biological target: T1, DPB-3xCFP (Arabidopsis thaliana) (UniProt Q9FNY2); test: as above
T1 sequence: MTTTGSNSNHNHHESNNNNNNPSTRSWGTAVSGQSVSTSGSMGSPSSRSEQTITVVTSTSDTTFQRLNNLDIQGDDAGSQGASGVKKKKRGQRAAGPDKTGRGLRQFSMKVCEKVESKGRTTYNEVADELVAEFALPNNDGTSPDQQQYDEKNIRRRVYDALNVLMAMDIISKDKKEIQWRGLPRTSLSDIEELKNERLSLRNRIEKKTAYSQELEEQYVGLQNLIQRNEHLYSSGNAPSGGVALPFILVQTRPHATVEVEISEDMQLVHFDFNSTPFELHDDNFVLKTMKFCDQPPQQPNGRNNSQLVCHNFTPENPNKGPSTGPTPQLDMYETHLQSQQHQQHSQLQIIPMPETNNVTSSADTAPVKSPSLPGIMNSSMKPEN

By UniProt entry, the sequences of proteins in these tests, tags left out.
UniProt Q9FV71: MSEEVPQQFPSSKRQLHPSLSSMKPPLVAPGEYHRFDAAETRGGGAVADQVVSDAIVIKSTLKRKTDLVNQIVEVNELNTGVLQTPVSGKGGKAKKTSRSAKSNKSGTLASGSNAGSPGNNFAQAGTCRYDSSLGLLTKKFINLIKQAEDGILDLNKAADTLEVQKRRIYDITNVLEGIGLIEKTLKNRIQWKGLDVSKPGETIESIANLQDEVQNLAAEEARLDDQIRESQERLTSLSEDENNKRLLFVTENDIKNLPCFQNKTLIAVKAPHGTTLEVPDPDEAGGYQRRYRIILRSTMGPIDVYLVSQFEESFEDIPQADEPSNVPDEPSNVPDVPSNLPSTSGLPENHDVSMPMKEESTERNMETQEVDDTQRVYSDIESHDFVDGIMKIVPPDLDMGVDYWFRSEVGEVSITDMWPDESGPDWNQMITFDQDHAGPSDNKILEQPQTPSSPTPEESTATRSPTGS

[3] = biological target: T2, E2FC-GFP (Arabidopsis thaliana) (UniProt Q9FV70); test: as above
T2 sequence: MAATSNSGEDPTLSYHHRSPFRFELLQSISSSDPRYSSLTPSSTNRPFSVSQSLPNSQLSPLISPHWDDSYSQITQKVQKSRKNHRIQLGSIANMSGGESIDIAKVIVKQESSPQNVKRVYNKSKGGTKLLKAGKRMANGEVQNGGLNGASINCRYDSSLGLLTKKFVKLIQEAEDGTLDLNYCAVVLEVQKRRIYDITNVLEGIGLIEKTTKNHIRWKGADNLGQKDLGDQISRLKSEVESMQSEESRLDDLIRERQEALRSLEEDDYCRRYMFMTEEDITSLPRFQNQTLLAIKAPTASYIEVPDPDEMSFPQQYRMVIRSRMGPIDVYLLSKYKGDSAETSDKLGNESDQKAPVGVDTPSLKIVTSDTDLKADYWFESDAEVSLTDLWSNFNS

[4] = biological target: T3, RBR1-GFP (Arabidopsis thaliana) (UniProt Q9LKZ3); test: as above
T3 sequence: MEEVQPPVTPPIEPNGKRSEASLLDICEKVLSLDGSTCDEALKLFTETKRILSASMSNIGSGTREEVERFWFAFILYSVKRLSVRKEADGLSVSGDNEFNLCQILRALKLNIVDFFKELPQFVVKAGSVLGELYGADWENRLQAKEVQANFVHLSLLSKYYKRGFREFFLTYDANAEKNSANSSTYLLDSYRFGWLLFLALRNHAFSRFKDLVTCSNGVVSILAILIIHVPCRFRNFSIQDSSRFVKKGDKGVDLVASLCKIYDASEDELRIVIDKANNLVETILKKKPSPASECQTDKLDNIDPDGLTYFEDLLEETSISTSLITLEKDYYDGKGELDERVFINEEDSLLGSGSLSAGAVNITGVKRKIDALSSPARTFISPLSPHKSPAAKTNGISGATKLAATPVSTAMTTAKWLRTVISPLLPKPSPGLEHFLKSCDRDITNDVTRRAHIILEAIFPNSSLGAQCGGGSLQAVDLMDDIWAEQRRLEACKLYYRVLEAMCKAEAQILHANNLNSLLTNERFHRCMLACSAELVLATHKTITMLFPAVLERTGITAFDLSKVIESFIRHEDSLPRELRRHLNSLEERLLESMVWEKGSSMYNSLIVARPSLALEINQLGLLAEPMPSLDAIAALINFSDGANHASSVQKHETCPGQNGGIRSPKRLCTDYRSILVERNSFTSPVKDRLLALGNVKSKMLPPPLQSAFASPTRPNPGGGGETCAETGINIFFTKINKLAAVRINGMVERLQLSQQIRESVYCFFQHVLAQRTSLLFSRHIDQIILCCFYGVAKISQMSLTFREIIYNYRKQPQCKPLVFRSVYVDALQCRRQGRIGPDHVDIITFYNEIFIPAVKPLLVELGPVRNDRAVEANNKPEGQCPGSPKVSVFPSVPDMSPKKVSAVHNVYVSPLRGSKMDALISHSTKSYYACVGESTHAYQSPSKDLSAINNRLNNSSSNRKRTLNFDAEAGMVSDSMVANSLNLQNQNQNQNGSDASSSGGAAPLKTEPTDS

[5] = biological target: N-terminally tagged RBR1 (TAP bait) (Arabidopsis thaliana) (UniProt Q9LKZ3); test: affinity purification with mass spectrometry; tandem affinity purification (GS^rhino tag) from Arabidopsis PSB-D cell suspension cultures expressing the tagged bait under the 35S promoter; 30 uM cisplatin added 16 h before harvest; 100 mg total protein extract; on-bead digest, LC-MS/MS; in …
[6] = biological target: T4, C-terminally tagged TCX5 (TAP bait) (Arabidopsis thaliana) (UniProt Q9SZD1); test: as above
T4 sequence: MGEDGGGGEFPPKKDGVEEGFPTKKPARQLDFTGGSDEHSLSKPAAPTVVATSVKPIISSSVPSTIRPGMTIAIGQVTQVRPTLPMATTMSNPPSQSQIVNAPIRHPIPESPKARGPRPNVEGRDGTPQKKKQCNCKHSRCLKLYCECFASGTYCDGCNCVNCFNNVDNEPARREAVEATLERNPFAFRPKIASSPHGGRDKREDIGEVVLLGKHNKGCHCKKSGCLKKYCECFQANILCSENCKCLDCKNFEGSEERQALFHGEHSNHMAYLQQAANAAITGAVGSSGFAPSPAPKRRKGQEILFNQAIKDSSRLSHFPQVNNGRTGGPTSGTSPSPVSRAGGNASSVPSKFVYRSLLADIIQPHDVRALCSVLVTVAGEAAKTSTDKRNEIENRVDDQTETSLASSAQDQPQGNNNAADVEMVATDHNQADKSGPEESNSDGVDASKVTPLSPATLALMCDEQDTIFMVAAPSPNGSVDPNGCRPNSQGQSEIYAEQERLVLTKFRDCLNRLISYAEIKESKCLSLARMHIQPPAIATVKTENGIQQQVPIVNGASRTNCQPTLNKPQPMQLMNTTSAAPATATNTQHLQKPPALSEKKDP

[7] = biological target: T5, N-terminally tagged TCX5 (TAP bait) (Arabidopsis thaliana) (UniProt Q9SZD1); test: as above
T5 sequence: T4 sequence

[8] = biological target: T6, DPB-3xCFP (Arabidopsis thaliana), Q9FNY2; test: affinity purification with mass spectrometry; FP-IP: anti-GFP antibody on magnetic beads, total protein extracts (4 mg/IP) of Arabidopsis seedlings expressing the GFP- or CFP-tagged bait under its own promoter; GFP alone as control; standard conditions, various growth regimes (meta-analysis of 182 IPs), with or without 50 uM cisplatin for 24 h; label-free LC-MS/MS; settings: remark: other sources report otherwise
T6 chain: T1 sequence

Measured: binding

B1: ALY1 (protein, UniProt Q6A331 1-971)
chain: MAPTRKSKSVNKRFTNEASPDINFGSASKTKQRKKKLADKLGPQWTKRELVRFYDAYRKYVGDWKKVAAAVRNNRSVEMVETLFCMNRAYLSLPEGTASVAGLIAMMTDHYSVMEGSESEGEDHDASEVTRKHLKRKRPQVLPSDFREEVVPPHSVASVEGCLSFLKQTQAYEKRQRATGKRTPRFLVAITHERDDIEDFSPPNKRAKKQLDADDDASRRGGGSPYRRKELSEITPTRLRKTSQAQEAQFKHPDSSMFENGVRDRWHKKGAADRDGALLMDMEGLVTQKEKIVRVEEAEGNYSDDDDGLGALKTLAEMSASLAPAGLLESESSPHWEEERKTNNVDKKSNTLETVSTSHHREKAKQAGLEDNLLHAISAPDKRKPKSVPESVDGNVVSIEELRTSSRKRKPKFQVLDVVAPKESTQDKSLYTKESAEVDSLKTPVKARRSSQGPAKQLKTAKTTVESSSASDKKITGPDAVVPATQVSASGPETLPQKPPNRRKISLKKSLQERAKSLETTHDKPRSFKKLSEHELLQEKLSNCLSYPLVRRWCIYEWFYSAIDYPWFAKMEFTDYLNHVGLGHAPRLTRVEWSVIKSSLGRPRRLSQRFLQDERDKLQEYRESVRKHYTELRGCATGVLHTDLARPLSVGNRVIAIHPKTREIRDGKILTVDHNKCNVLFDELGVELVMDIDCMPLNPLEYMPEGLRRQIDKCLAICKEARLNRHPSSDASVLFSPSVLENVNFSMNPPPAKQDDIREPVLYGKVIATNTTDQSIVINSKVTGTEIQRTLALQHTSDAQEMEPEMIEIVIESKSIAQAMVDAAIKAASSGKNNEDSENMVHQALSSIGEHQPLDNSIVPGIKHQEYTNGSLDHHSLNTAEPMSNGFISQEGSGKNKTPMPSELITSCVASWLMMQMISKKQYPPADVAQLMDTVVNDLQPRCPQNMPIYREIQTCMGLIKTQIMALVRTS
binds: [1] | [2] | [3] | [4] | [5] | [6] | [7]

B2: RETINOBLASTOMA-RELATED 1 (RBR1), Q9LKZ3 1-1013 (protein)
chain: T3 sequence
binds: [8]
